Assay results as given in PubChem BioAssay AID720504 (National Center for Advancing Translational Sciences (NCATS), 2013).
Hit rate of the full screen: of about 360,000 compounds, about 10,000 (2.8%) were called active. Inconclusive means that the source gave no clear call. Such entries were picked first, then a sample of the others. Calls come from the whole dose curve; as a rule, active = well fitted inhibition curve with a large enough effect; inconclusive = small, poorly fitted or top-dose-only effect; inactive = flat fitted curve, though single readings scatter. Where the call is inconclusive, the potency comes from a doubtful curve fit.

The chains behind the UniProt entries cited, without tags or fusion partners.
UniProt P53350, whole entry, looked up: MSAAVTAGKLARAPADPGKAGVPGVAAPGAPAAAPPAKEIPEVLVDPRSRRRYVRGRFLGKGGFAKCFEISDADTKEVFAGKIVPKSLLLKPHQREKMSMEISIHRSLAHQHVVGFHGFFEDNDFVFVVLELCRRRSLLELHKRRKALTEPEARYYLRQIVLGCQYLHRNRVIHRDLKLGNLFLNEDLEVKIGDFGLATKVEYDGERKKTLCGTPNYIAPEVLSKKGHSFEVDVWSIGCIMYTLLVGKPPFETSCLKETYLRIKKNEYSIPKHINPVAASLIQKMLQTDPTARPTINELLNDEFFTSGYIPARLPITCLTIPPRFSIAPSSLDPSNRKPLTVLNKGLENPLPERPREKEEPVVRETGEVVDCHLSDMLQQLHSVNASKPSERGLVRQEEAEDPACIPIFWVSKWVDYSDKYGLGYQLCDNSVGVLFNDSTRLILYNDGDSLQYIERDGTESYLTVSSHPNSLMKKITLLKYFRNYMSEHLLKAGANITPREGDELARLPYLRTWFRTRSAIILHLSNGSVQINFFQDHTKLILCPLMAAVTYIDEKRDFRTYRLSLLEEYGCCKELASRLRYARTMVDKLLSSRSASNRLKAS

These compounds were tested against Serine/threonine-protein kinase PLK1 (Homo sapiens) (UniProt P53350) (assay: qHTS for Inhibitors of PLK1-PDB (polo-like kinase 1 - polo-box domain): Primary Screen). Details: Plk1 PBD binding of FITC phosphopeptide, fluorescence polarization.
Excerpt: The polo-like kinase 1 (Plk1) is a member of a conserved subfamily of serine / threonine protein kinases that plays a pivotal roles in cell proliferation. It has a C-terminal non-catalytic region called the polo-box domain (PBD) that plays a crucial role in the subcellular localization of the Plk1. […] Furthermore, depletion of the overexpressed Plk1 by RNAi efficiently induces apoptotic cell death in cancer and reduces tumor growth in mouse xenograft models. Thus, targeting Plk1 is an appealing strategy for anti-cancer therapy. Therefore, this project aimed to screen the Molecular Libraries Small Molecule Repository (MLSMR) using a novel approach to find inhibitors that target the Plk1 PBD instead of the conventional N-terminal catalytic domain. This project employed a fluorescence polarization (FP) assay using a FITC-conjugated phospho-9-mer (p-9-mer) peptide and purified human Plk1 PBD protein. The identified small molecule inhibitors of Plk1 PBD can then further be developed into useful tools for biomedical and clinical research that complements or replaces current relevant disease therapy. NIH Chemical Genomics Center [NCGC] NIH Molecular Libraries Probe Centers Network [MLPCN] MLPCN Grant: MH100728 Assay Submitter (PI): Kyung Lee, NCI
Four microliter of 25 nM FITC-p-9-mer + 60 nM Plk1 PBD in buffer solution (final concentrations 25 nM and 60 nM respectively) or 4 uL of 25 nM FITC-p-9-mer (final concentration 25 nM) in buffer will be dispensed into a 1,536 Greiner medium-binding black solid plate. Small molecules at final concentrations of 18 nM to 57 uM and positive control phospho-9-mer (sequence: Ac-PPLHSpTAI-NH2) at final concentrations 26 nM to 57 uM and phospho-13-mer (sequence: Ac-[…]pTAI-NH2) at final concentrations of 1 nM to 2.3 uM will be pin-transferred (23 nL) to the plate via a Kalypsys pin-tool robotics equipped with a 1,536-pin array. The reaction plate will be centrifuged for 1 min at 1000 rpm and incubated at room temperature for 10 min. The FITC fluorescence signals will be read using the PerkinElmer ViewLux plate reader at 480 / 20 nm excitation and 540 / 20 nm S and P polarization emission wavelengths. Reagent bottles will be kept submerged into 4 °C recirculating chiller bath and all liquid lines will be covered with aluminum foil to minimize degradation. Library plates will be screened starting from the lowest to the highest concentrations to minimize compound carryover. Vehicle only plates, with DMSO being pin-transferred instead of compound solutions, will be included regularly throughout the screen to record any systematic shifts in assay signal.
% is set by controls: 0 for no effect and ±100 for the full control effect; potency is the fitted concentration of half-maximal effect.
Note: nearly all actives have a fitted effect of over 65% in size.
Throughout, for max response, negative = inhibition: series mostly up to about 57 µM.

Compound | Potency | max response, negative = inhibition
O=C(/C=C/c1cccc([N+](=O)[O-])c1)Nc1cc(C(=O)O)cc(C(=O)O)c1 | active: 10.6 µM | –
CC(C)CC1NC(=O)N(CC(=O)Nc2ccc(OCc3ccccc3)cc2)C1=O (stereo not drawn) | – | inactive: -2.48%
O=C(N/N=C/c1cccn1-c1cccc(C(=O)O)c1)Nc1ccccc1 | inconclusive: 21.2 µM [inhibitor, single point] | –
Cc1ccc(NS(=O)(=O)c2ccc3c(c2)NC(=O)CCS3)c(Br)c1 | – | inactive: -13.6%
N#CCCN=C(NS(=O)(=O)c1ccccc1)c1ccccc1 | – | inactive: -5.3%
C=CCOCCN1C(=O)C2C3C=CC(C2C1=O)C1C2C(=O)N(CCOCC=C)C(=O)C2C31 (stereo not drawn) | inconclusive: 13.4 µM [inhibitor, partial curve] | –
Cc1cccc(NC(=S)N/N=C2/CCCCc3ccccc32)c1 | – | inactive: -19.3%
N#CCCn1cc(C(=O)Nc2ccc(C(=O)O)cc2)c(-c2cccs2)n1 | active: 5.97 µM | –
CC1(C(=O)Nc2ccc3nc[nH]c3c2)CCN1C(=O)c1ccccc1CCc1ccccc1 (stereo not drawn) | – | inactive: -7.98%
O=C1C(Sc2cccc(F)c2)=C[C@@]2(O)CC[C@@H](O)[C@]1(Sc1cccc(F)c1)[C@H]2O | inconclusive: 6.7 µM [inhibitor, single point] | –
CCCC1(c2ccsc2)NC(=O)NC1=O (stereo not drawn) | – | inactive: -8.79%
O=[N+]([O-])c1cc2c(cc1/C=N/NS(=O)(=O)c1ccc(Br)cc1)OCO2 | inconclusive: 16.8 µM [inhibitor, partial curve] | –
O=C(Nc1ccc(C(=O)O)cc1)/C(=C\c1ccco1)NC(=O)c1ccccc1 | – | inactive: -12.6%
CCCC(=O)Nc1nnc(/C=C/c2ccc(OC)cc2)s1 | inconclusive: 37.7 µM [inhibitor, single point] | –
CCN(CC)C(=O)CSC1=C(C#N)C(c2cccs2)C=C(C)N1 (stereo not drawn) | – | inconclusive: -34.8% [inhibitor]
C/C(Cc1ccccc1)=N\NC(=O)c1cccnc1 | – | inactive: -4.39%
COC(=O)CNC(c1ccccc1)c1cc(Br)ccc1NC(=O)CCN1CCOCC1 (stereo not drawn) | inconclusive: 16.8 µM [inhibitor, partial curve] | –
Cc1cccc(C(=O)NC(=S)Nc2c(C)n(C)n(-c3ccccc3)c2=O)c1 | inconclusive: 26.7 µM [inhibitor, single point] | –
CN(CC(=O)Nc1nc2ccc(F)cc2s1)S(=O)(=O)c1ccc(Cl)cc1 | inconclusive: 11.9 µM [inhibitor, partial curve] | –
S=c1nc2ccccc2c2nc(-c3ccccc3)[nH]n12 | inconclusive: 21.2 µM [inhibitor, partial curve] | –
O=[N+]([O-])c1ccc(-c2n(-c3ccccn3)c3ccccc3[n+]2-c2ccccn2)cc1 | – | inactive: -17.7%
O=C(O)/C=C/c1ccc2ccccc2n1 | – | inactive: -4.66%
CCOC(=O)c1c(NC(=S)Nc2ccccc2)sc2c1CC(C)(C)SC2 | inconclusive: 11.9 µM [inhibitor, partial curve] | –
O=C(COC(=O)CSc1cc(Cl)ccc1Cl)NCc1ccc2c(c1)OCO2 | active: 26.7 µM | –

Compound | Potency | max response, negative = inhibition
CCOC(=O)C(C)Sc1nc(-c2ccccn2)ncc1OC (stereo not drawn) | inconclusive: 23.8 µM [inhibitor, single point] | –
O=C(NCCc1nc2ccccc2[nH]1)/C(=C/c1ccco1)NC(=O)c1ccccc1Br | – | inactive: 6.01%
Cc1c(NC(=O)c2ccc(F)cc2)c(=O)n(-c2ccccc2)n1C | – | inactive: -5.25%
O=c1c2c(nc3c(-c4ccc(Cl)cc4)c[nH]n13)CCCC2 | – | inactive: -28.9%
Cc1ccc2cc(C3CC(c4cccs4)=NN3S(C)(=O)=O)c(Cl)nc2c1 (stereo not drawn) | – | inactive: 3.89%
COc1ccc2c(c1)CCc1cn[nH]c1-2 | active: 26.7 µM | –
O=C1Nc2ccc(F)cc2C12Nc1ccccc1-c1nnc(SCc3ccccc3F)nc1O2 (stereo not drawn) | – | inconclusive: -33.8% [inhibitor]
COc1cccc(/C=N/N2C(=O)CSC2=S)c1O | inconclusive: 26.7 µM [inhibitor, partial curve] | –
COc1ccc(N(CC(=O)NCC2CCCO2)C(=O)CCC(=O)Nc2cc(C)on2)cc1OC (stereo not drawn) | – | inactive: -4.2%
CSc1nc2c(cc1C#N)CCC2 | inconclusive: 37.7 µM [inhibitor, single point] | –
CCOC(=O)CSC1=NC(=O)/C(=C/c2ccc(Br)cc2)S1 | active: 0.844 µM | –
N#CC1=C(N)Oc2c(oc(CO)cc2=O)C1c1ccccc1[N+](=O)[O-] (stereo not drawn) | inconclusive: 26.7 µM [inhibitor, single point] | –
S=c1[nH]nc(C2CCCCC2)n1/N=C/C=C/c1ccccc1 | – | inconclusive: -36.6% [inhibitor]
O=C(CSc1nnc(CNC(=O)c2c(F)cccc2F)o1)NCc1ccco1 | – | inactive: -14.3%
COc1ccccc1CN(C)C(=O)C(NC(=O)Cc1cccc2ccccc12)C(C)C (stereo not drawn) | active: 26.7 µM | –
CCOc1ccc2[nH]cc(-c3csc(N)n3)c2c1 | inconclusive: 26.7 µM [inhibitor, single point] | –
COCC(=O)N1CCC(Oc2ccc(C(=O)N3CCCCCCC3)cc2)CC1 | – | inactive: 1.13%
COc1ccc(S(=O)(=O)N2CCC(C(=O)NCCC(=O)Nc3ccccc3OC)CC2)cc1 | – | inactive: 2.5%
N#C/C(=C(/O)CSc1nnc(Cc2cccs2)n1C1CCCCC1)c1nc2ccccc2[nH]1 | – | inactive: -20.7%
COC(=O)Nc1nc2ccc(Br)cc2s1 | inconclusive: 21.2 µM [inhibitor, partial curve] | –
COc1ccc(C(=O)NC(=S)Nc2ccccc2N2CCCCC2)cc1[N+](=O)[O-] | – | inactive: -10%
COc1cc(/C=C2/C(=N)N3N=C(CC(=O)N4CCOCC4)SC3=NC2=O)ccc1OC(C)c1ccccc1 (stereo not drawn) | inconclusive: 29.9 µM [inhibitor, partial curve] | –
COc1ccc(C(C[N+](=O)[O-])c2c(C)cc3ccccn23)cc1 (stereo not drawn) | – | inactive: -13.1%
CCOC(=O)C(C)(C)Sc1nc2c(cnn2-c2ccc(Cl)cc2)c(=O)[nH]1 | inconclusive: 23.8 µM [inhibitor, single point] | –

Shown as labelled records: entries from further up
N#CC1=C(N)Oc2c(oc(CO)cc2=O)C1c1ccccc1[N+](=O)[O-] (stereo not drawn)
  Potency: inconclusive: 26.7 µM [inhibitor, single point]
S=c1[nH]nc(C2CCCCC2)n1/N=C/C=C/c1ccccc1
  max response, negative = inhibition: inconclusive: -36.6% [inhibitor]
